Test results from patent US20140329706A1, “AFFINITY TAGS, AND RELATED AFFINITY LIGANDS, ENGINEERED PROTEINS, MODIFIED SUPPORTS, COMPOSITIONS, METHODS AND SYSTEMS” (CALIFORNIA INSTITUTE OF TECHNOLOGY, priority 2013, published 2014).
Results are given in words; binding and its absence hold for the method and conditions named. Some results given as binding are weak or reduced against the parent protein; the word gives no strength.

By UniProt entry, the sequences of proteins in these tests, tags left out. Chains listed by the source or under a name are the forms on record and can include a tag or linker. Residues count along the entry.
LacZ with N-terminal PSD-95 PDZ2 domain tag (Type C) (Q62108, residues 160-246): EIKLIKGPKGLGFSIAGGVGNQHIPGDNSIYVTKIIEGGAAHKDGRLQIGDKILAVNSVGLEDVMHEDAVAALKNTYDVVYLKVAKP
PDZ3 domain of PSD-95 (Q62108, residues 313-393): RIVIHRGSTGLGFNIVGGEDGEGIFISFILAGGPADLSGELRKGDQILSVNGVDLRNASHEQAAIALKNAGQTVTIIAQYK
UniProt Q792Q4: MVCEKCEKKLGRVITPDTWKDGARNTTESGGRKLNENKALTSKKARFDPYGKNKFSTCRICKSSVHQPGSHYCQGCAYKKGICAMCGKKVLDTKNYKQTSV

The substances below were run against T1, NR2B (GluN2B) peptide ligand … (assay: affinity chromatography on … peptide resin, SIESDV peptide elution, SDS-PAGE).
T1 sequence (peptide): GAGSSIESDV

| binding | Substance |
| --- | --- |
| binds | PDZ2 domain of PSD-95 (from UniProt Q62108 160-246) |
| binds | PDZ2 tag-MBP (from UniProt Q62108 160-246) |
| binds | MBP-PDZ2 tag-GST (from UniProt Q62108 160-246) |
| binds | MBP-PDZ2 tag (from UniProt Q62108 160-246) |
| binds | LacZ with N-terminal PSD-95 PDZ2 domain tag (Type C) (from UniProt Q62108 160-246) |

| Substance | binding |
| --- | --- |
| DasherGFP with N-terminal PSD-95 PDZ2 domain tag (Type C) (from UniProt Q62108 160-246) | binds |

The substances below were run against PDZ3 domain of PSD-95 (UniProt Q62108) (assay: affinity chromatography on PSD-95 PDZ3 resin with 0 or 5 mM TCEP, YKQTSV peptide elution, SDS-PAGE).

| binding | Substance |
| --- | --- |
| binds | CRIPT (Rattus norvegicus, AA 1-101) (from UniProt Q792Q4 1-101) |
